Our source for the AC50 values is PubChem BioAssay AID445 (National Center for Advancing Translational Sciences (NCATS), 2006).

The list shows a part of the results. These are further read-outs of the screen, such as a control signal, another cell line or another target. No call is given for them. The list favours compounds with an active or inconclusive main result. Potencies come from curve fits of mixed quality, noted in brackets.

A short description of the experiment: IkB Signaling. The note with it: ABC-DLBCL IkBa-CBG/CBR dual luciferase ratio (green luciferase fused to IkBa over red control in OCI-Ly3 lymphoma cells), 4 h; measured here: control luc red channel unless noted. Summed up:
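Luminescence ratio of IκBα-fused green versus native red beetle luciferase in OCI-Ly3 cells, 4 h post-doxycycline with compound; red signal alone, scaled from basal (0%) to zero light (-100%), flagged nonspecific or cytotoxic effects.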
In the case of `Cn1c(=O)oc2cc(S(=O)(=O)N3CCCC(C(=O)N4CCN(c5cccc(Cl)c5)CC4)C3)ccc21` (centres undefined), the half-maximal activity concentration (AC50) is 10 µM [falling, partial curve]. The result for `O=C(CC1(O)C(=O)N(Cc2ccccc2)c2ccc(Br)cc21)c1ccccc1` (centres undefined) reads 20 µM [falling, partial curve, poor fit]; that for `NS(=O)(=O)c1cc(C(=O)O)cc(N2CCCC2)c1Oc1ccccc1`, 7.94 µM [rising, partial curve] [measured here: IkB-luc green channel]; that for `CCOC(=O)c1cccc(NC(=O)Nc2cc(OC)ccc2OC)c1`, 10 µM [falling, partial curve]. Turning to `CCOC(=O)Cn1cnc2c(cnn2-c2ccc(C)c(C)c2)c1=O`, the half-maximal activity concentration (AC50) is 31.6 µM [falling, single point]. For the compound `COc1ccccc1-c1nc(C#N)c(N2CCc3ccccc3C2)o1`, the AC50 was 39.8 µM [falling, single point]. For `Cc1ccccc1C(=O)NCc1ccc2c(c1)CCN2C(=O)c1ccc(F)cc1` the value was 25.1 µM [falling, partial curve]; for `O=C(Nc1cccc(S(=O)(=O)C(F)F)c1)c1ccc(S(=O)(=O)N2CCOCC2)cc1`, 12.6 µM [falling, partial curve]; for `COc1ccccc1CNC(=O)c1cc(-c2ccccc2)n[nH]1`, 12.6 µM [falling, partial curve]. With `CNC(=O)[C@@H]1O[C@@H](n2cnc3c(NCc4cccc(I)c4)ncnc32)[C@H](O)[C@@H]1O`, the concentration at half-maximal activity (AC50) is 2.51 µM [rising, partial curve] [measured here: IkB-luc green channel]. For `O=C(NCCCN1CCN(c2cccc(Cl)c2)CC1)c1nnc(Cc2ccc(F)cc2Cl)o1` the value was 31.6 µM [falling, single point]; for `Cc1ccc2nc(NC(=O)CSc3ncc(C(=O)Nc4ccccc4)c(=O)n3C)sc2c1`, 7.94 µM [falling, partial curve]; for `CCOP(=O)(c1ccc(N(C)C)cc1)C(O)c1ccc(Cl)cc1` (centres undefined), 2 µM [falling, full curve]. For the compound `O=C(COc1ccc(Br)cc1)Nc1cccc2cccnc12`, the AC50 was 5.01 µM [rising, single point].

Turning to `COC(=O)CN1C(=O)C(C)(C)c2cc(S(=O)(=O)Nc3ccc(C(C)C)cc3)ccc21`, the AC50 is 25.1 µM [falling, partial curve, poor fit]. For `COc1cccc(NC(=O)c2oc3ccccc3c2NC(=O)Cc2cccc(C)c2)c1` the value was 10 µM [falling, partial curve]; for `CCc1ccc(-n2nc(CO)c(C(=O)NCCCCc3ccccc3)n2)cc1`, 0.2 µM [rising, full curve, poor fit].

As to `Cc1ccccc1OCC(=O)N(Cc1ccc(C(C)C)cc1)C1CCS(=O)(=O)C1` (centres undefined), the half-maximal activity concentration (AC50) was 31.6 µM [falling, partial curve]. On to `COc1ccc(N2CC(NC(=O)c3ccc(S(=O)(=O)N4CCOCC4)cc3)CC2=O)cc1` (centres undefined), for which the half-maximal activity concentration (AC50) was 6.31 µM [falling, single point]. The result for `COc1cc2c(cc1OC)C(COc1ccc(C(C)C)cc1)N(C(=O)COc1ccccc1)CC2` (centres undefined) reads 20 µM [falling, single point]. For `COc1ccccc1NC(=O)C1CCN(c2ncnc3c2nc2n3CCCCC2)CC1`, the AC50 is 39.8 µM [falling, partial curve, poor fit].

For `CCOC(=O)CSc1ncnc2c1c(-c1ccccc1)cn2-c1ccc(OC)cc1`, the AC50 was 7.94 µM [falling, single point].

In the case of `CC(C)c1[nH]nc2c1C(C(C)C)C(C#N)=C(N)O2` (centres undefined), the AC50 was 31.6 µM [falling, partial curve]. Regarding `Cc1cccc(C(=O)Nc2cccc(C(=O)OCc3cc(=O)n4nc(C5CC5)sc4n3)c2)c1`, the concentration at half-maximal activity (AC50) was 0.794 µM [falling, full curve].

Regarding `N#Cc1ccccc1NC(=O)C(=O)NCC(c1cccnc1)N1CCN(c2ccccc2)CC1` (centres undefined), the concentration at half-maximal activity (AC50) was 10 µM [falling, partial curve]. The result for `O=C(NCc1ccco1)c1cc(-c2ccc(F)cc2)on1` reads 3.16 µM [falling, full curve]; that for `CCOc1ccc(C(=O)Nc2ccc3nc(SCC(=O)N4CCOCC4)sc3c2)cc1`, 12.6 µM [falling, partial curve]. Regarding `CCN1CCN(C(=O)c2ccc3c(c2)N(Cc2cc(C)ccc2C)C(=O)c2ccccc2S3(=O)=O)CC1`, the AC50 was 31.6 µM [falling, partial curve]. On to `Cc1cc(C)n(-c2nc3ccccc3c(=O)n2OCC(=O)OCc2ccccc2)n1`, for which the AC50 was 31.6 µM [rising, single point] [measured here: IkB-luc green channel].

In the case of `CCOC(=O)c1c(C)oc2nc(C)nc(NCCc3ccc(S(N)(=O)=O)cc3)c12`, the concentration at half-maximal activity (AC50) is 0.316 µM [rising, full curve, poor fit]. `CCCSCCCNC(=O)CN1C(=O)COc2ccc(S(=O)(=O)N3CCCCCC3)cc21`: the half-maximal activity concentration (AC50) was 31.6 µM [falling, single point]. For the compound `Cc1cc(NC(=O)CN(c2cccc(C)c2C)S(=O)(=O)c2ccccc2)ccc1Br`, the half-maximal activity concentration (AC50) was 3.98 µM [falling, full curve]. With `COc1ccc(CCC(=O)NCc2ccc3c(c2)CCN3C(=O)c2cccc(C)c2)cc1`, the AC50 is 39.8 µM [falling, single point]. Regarding `C=CCNC(=O)c1cc(-c2ccccc2O)on1`, the concentration at half-maximal activity (AC50) was 1.26 µM [falling, full curve]. For `COc1ccc(C(=O)Nc2ccc(-c3cc(C(F)(F)F)nn3-c3ccccc3)cc2)cc1OC` the value was 10 µM [falling, partial curve]. In the case of `COc1ccc(-c2nnn(CC(=O)OC3CCCCC3)n2)cc1OC`, the AC50 is 39.8 µM [falling, single point]. For `Cc1oc(-c2cccc(Cl)c2)nc1CSCC(=O)O` the value was 7.94 µM [falling, partial curve]. As for `CCN(C(=O)c1cc2c(Cl)nc3ccc(C)cc3c2s1)c1cc(OC)ccc1OC`, the AC50 is 10 µM [falling, partial curve]. Turning to `Cc1ccc2cc(CN(Cc3cccs3)Cc3nnnn3CC3CCCO3)c(=O)[nH]c2c1` (centres undefined), the AC50 is 12.6 µM [falling, partial curve].
